Patent US5849493

By UniProt entry, the sequences of proteins in these tests, tags left out. Where a name states a change or a piece, a line headed by the entry shows the natural chain unless it says otherwise. Residues count along the entry.
UniProt P52947, 140-215: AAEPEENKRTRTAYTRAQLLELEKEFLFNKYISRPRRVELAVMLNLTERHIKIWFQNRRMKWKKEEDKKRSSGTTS

Columns and labels:
Assay in all cases: EMSA
STF-1 + Pbx1 heterodimer = details: purified recombinant protein, label: 32P
[1] = system: PIM-cdx3 fusion with STF-1 homeodomain N-terminal arm + Pbx1; details: N-terminal arm of STF-1 rescues cooperativity; purified recombinant protein; label: 32P
STF-1 delta1-115 + Pbx1 = details: cooperativity retained; protein translated in vitro; label: 32P
cdx3 homeodomain + Pbx1 = details: no heterodimer; purified recombinant protein; protein details: GST, Pbx1 in vitro translated; label: 32P
[2] = biological target: STF-1 homeodomain (Hox 140-215) (UniProt P52947); details: monomeric complex; purified recombinant protein; protein details: GST (pGEX3X); label: 32P
[3] = system: STF-1 homeodomain (140-215) + Pbx1; details: no heterodimer; monomer only; purified recombinant protein; protein details: GST-STF-1 from E. coli, Pbx1 in vitro translated; label: 32P
Isl1 homeodomain + Pbx1 = details: no heterodimer; monomer binds; purified recombinant protein; protein details: GST-Isl1, Pbx1 in vitro translated; label: 32P
STF-1 (IPF1/IDX-1/PDX1) = STF-1 (IPF1/IDX-1/PDX1) (UniProt P52947); details: purified recombinant protein, label: 32P
[4] = system: STF-1 delta216-284 + Pbx1; details: cooperativity retained; protein translated in vitro; label: 32P
[5] = system: PIM-cdx3 homeodomain fusion + Pbx1; details: no heterodimer; fusion monomer binds with wild-type affinity; purified recombinant protein; protein details: GST, Pbx1 in vitro translated; label: 32P
[6] = system: PIM-Isl1 homeodomain fusion + Pbx1; details: no heterodimer; fusion monomer binds with wild-type affinity; purified recombinant protein; protein details: GST, Pbx1 in vitro translated; label: 32P
Oct-1 (complex C3) = details: complex C3 identified by Oct-1 antiserum; protein in an extract; label: 32P
[7] = system: STF-1 FPWMK to AAGGQ mutant + Pbx1 FPWMK to AAGGQ (STF-1); details: deficient in cooperativity with Pbx; purified recombinant protein; protein details: Pbx1 in vitro translated; label: 32P
STF-1 110-215 + Pbx1 = details: cooperative; purified recombinant protein; protein details: GST-STF-1 from E. coli, Pbx1 in vitro translated; label: 32P
Isl1 homeodomain (rat) = biological target: T1, Isl1 homeodomain (rat) (UniProt P61374); details: high affinity; purified recombinant protein; protein details: GST; label: 32P
T1 sequence (looked up): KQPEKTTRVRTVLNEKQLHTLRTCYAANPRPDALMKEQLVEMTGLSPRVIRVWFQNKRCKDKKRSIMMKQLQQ

[8] = biological target: STF-1 FPWMK to AAGGQ mutant (UniProt P52947); details: wild-type binding activity; purified recombinant protein; label: 32P

Sequence: GATCTCAGCTATTAATCATGCA / CTACTCCATGATTAATAGCTGA [TSEII M1]
- binding result (STF-1 + Pbx1 heterodimer; minimal effect on cooperativity, variant of somatostatin TSEII): binds

Sequence: GATCTCAGTAATCTAATCATGCA / AGTCATTAATATGTACGTCATG [TSEII M2]
- binding result (STF-1 + Pbx1 heterodimer; heterodimer completely abolished, variant of somatostatin TSEII): no binding

Sequence: GATCTCAGTAATTAATCATGCA / AGTCATTAATTAGTACGTCATG [somatostatin TSEII]
- binding result (STF-1 + Pbx1 heterodimer; cooperative C2 complex, stability comparable to endogenous C2): binds
- binding result [1]: binds
- binding result (STF-1 delta1-115 + Pbx1): binds
- binding result (cdx3 homeodomain + Pbx1): no binding
- binding result [2]: binds
- binding result [3]: no binding
- binding result (Isl1 homeodomain + Pbx1): no binding
- binding result (STF-1 (IPF1/IDX-1/PDX1); monomeric complex C1, complex C1 half-life <1 min (Tu-6 extract)): binds
- binding result [4]: binds
- binding result [5]: no binding
- binding result [6]: no binding
- binding result (Oct-1 (complex C3)): binds
- binding result [7]: binds more weakly
- binding result (STF-1 110-215 + Pbx1): binds
- binding result (Isl1 homeodomain (rat)): binds

Sequence: GATCTCAGTAATTATACATGCA / GTACTGCATGTATAATTACTGA [TSEII M3]
- binding result (STF-1 (IPF1/IDX-1/PDX1); M3 affected formation of monomeric C1, variant of somatostatin TSEII): binds more weakly

Sequence: GATCTTGTTAATAATCTAATTACCCTAG / AACAATTATTAGATTAATGGGATCCAT [insulin I FLAT element]
- binding result (STF-1 + Pbx1 heterodimer; no heteromeric complex): no binding
- binding result [8]: binds
- binding result (STF-1 (IPF1/IDX-1/PDX1); high affinity site): binds

For part of these data: No signal at the amounts used counts as a negative. For part of these data: Weaker means in comparison with the reference protein, sequence or condition of that experiment. For part of these data: Construct, isoform or probe ends are uncertain for at least one entry. For part of these data: Where cells or extracts were used, other partners may take part. For part of these data: Protein sequences can lack the tags named with them.
